Data as given in PubChem BioAssay AID1259308 (NCATS, 2017)
The deposit covers about 59,000 reagents; below is a part drawn at random. About 1,510 of them (2.6%) were called active. 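Calls use total luciferase alone and ignore viability, so some active siRNAs may act by altering cell number.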 The numbers tell different reagents against one gene apart.

- Test: 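Knock-downs that increase output of a recombinant reporter protein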 (primary screen)
- Cell system: human HEK293 embryonic kidney cells stably expressing firefly luciferase (HEK-CMV-Luc2-Hygro)
- Reagents: single siRNA against human genes, 0.8 pmol siRNA per well
- Duration: 72 h
- Read-out: 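Luciferase light (ONE-Glo) measured on one replicate plate set and viability (CellTiter-Glo) on the other, scaled to a negative control siRNA, with robust z-scores and luciferase per cell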
- Reading the numbers: total luciferase, z-score and total luciferase, % of control: higher = more reporter protein produced; luciferase per cell, z-score: higher = more reporter output per viable cell; viable cells, % of control: higher = more viable cells
- Call rule: 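Active when the median/MAD z-score for overall luciferase is greater than 3; a gene was taken forward for validation with new siRNAs if at least two of its three siRNAs passed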
- Meaning of the calls: active = raised luciferase; inactive = no rise

target | siRNA no. | total luciferase, z-score | total luciferase, % of control | luciferase per cell, z-score | viable cells, % of control | Call
CEP135 | 1 | 0.519 | 92.2 | -0.218 | 109 | inactive
CEP135 | 2 | 0.456 | 90.9 | 0.273 | 94.6 | inactive
CEP135 | 3 | 1.5 | 112 | 0.975 | 96.7 | inactive
ARHGEF3 | 1 | 1.68 | 115 | 2.03 | 75.4 | inactive
ARHGEF3 | 2 | 0.793 | 97.7 | 0.96 | 84.7 | inactive
ARHGEF3 | 3 | -0.355 | 74.8 | -0.805 | 103 | inactive
CSRP2 | 1 | 0.25 | 86.9 | -0.395 | 108 | inactive
CSRP2 | 2 | -0.873 | 64.5 | -1.54 | 108 | inactive
CSRP2 | 3 | -1.17 | 58.6 | -0.988 | 84.9 | inactive
WASHC2FP | 1 | 0.492 | 91.7 | -0.105 | 105 | inactive
WASHC2FP | 2 | 1.18 | 105 | 1.74 | 74.3 | inactive
WASHC2FP | 3 | 3.63 | 154 | 2.22 | 96.1 | active
ABTB1 | 1 | -0.255 | 76.8 | -0.435 | 96.3 | inactive
ABTB1 | 2 | 0.0675 | 83.2 | 0.123 | 90 | inactive
ABTB1 | 3 | 0.457 | 91 | -0.498 | 116 | inactive
LETM1 | 1 | -0.352 | 74.9 | 0.823 | 67.4 | inactive
LETM1 | 2 | -0.872 | 64.5 | -0.447 | 81.1 | inactive
LETM1 | 3 | 0.523 | 92.3 | 0.78 | 84 | inactive
GALNT4 | 1 | -0.972 | 62.6 | -1.05 | 92.2 | inactive
GALNT4 | 2 | 1.07 | 103 | 0.87 | 91.8 | inactive
GALNT4 | 3 | -1.64 | 49.3 | -2.4 | 104 | inactive
ERN2 | 1 | -0.436 | 73.2 | -0.356 | 89.8 | inactive
ERN2 | 2 | -1.07 | 60.5 | -0.835 | 84.3 | inactive
ERN2 | 3 | 0.0427 | 82.7 | -0.3 | 100 | inactive
C9orf85 | 1 | -0.023 | 81.4 | -0.29 | 98.2 | inactive
C9orf85 | 2 | 4.32 | 168 | 4.12 | 63.3 | active
C9orf85 | 3 | 0.0827 | 83.5 | -0.399 | 104 | inactive
TRAPPC8 | 1 | -0.869 | 64.6 | -0.186 | 75.8 | inactive
TRAPPC8 | 2 | 0.148 | 84.8 | 0.499 | 83.1 | inactive
TRAPPC8 | 3 | 0.745 | 96.7 | 0.183 | 103 | inactive
MESP2 | 1 | 0.252 | 86.9 | 0.329 | 89.1 | inactive
MESP2 | 2 | 0.585 | 93.5 | 0.097 | 102 | inactive
MESP2 | 3 | -0.591 | 70.1 | -0.754 | 95.6 | inactive
DORIP1 | 1 | 0.146 | 84.8 | -0.494 | 108 | inactive
DORIP1 | 2 | -0.0408 | 81.1 | 0.522 | 79 | inactive
DORIP1 | 3 | 0.815 | 98.1 | -0.254 | 117 | inactive
FGD2 | 1 | 1.04 | 103 | 3.59 | 44.5 | inactive
FGD2 | 2 | 0.487 | 91.6 | 1.5 | 68.9 | inactive
FGD2 | 3 | -0.78 | 66.4 | -0.701 | 89.2 | inactive
